Source: paper doi:10.1101/2023.11.30.569364
Results are given in words; binding and its absence hold for the method and conditions named. In cells and extracts the contact can be indirect. Some results given as binding are weak or reduced against the parent protein; the word gives no strength. Where a sequence is shown, tags or fusion partners need not be part of it.

Chains of the proteins cited; added tags and fusions are not shown. Lines headed by an entry give the natural chain unless they say otherwise; changes in a name come on top. Residues count along the entry.
GST IE62 (1–200) (varicella-zoster virus (VZV)) (P09310, residues 1-200): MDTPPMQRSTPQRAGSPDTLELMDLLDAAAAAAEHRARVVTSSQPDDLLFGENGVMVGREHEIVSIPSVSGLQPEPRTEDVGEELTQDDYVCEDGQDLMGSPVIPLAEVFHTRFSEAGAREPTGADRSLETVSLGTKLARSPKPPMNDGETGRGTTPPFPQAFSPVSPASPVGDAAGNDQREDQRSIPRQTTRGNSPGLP
GST IE62 (1–86) (varicella-zoster virus (VZV)) (P09310, residues 1-86): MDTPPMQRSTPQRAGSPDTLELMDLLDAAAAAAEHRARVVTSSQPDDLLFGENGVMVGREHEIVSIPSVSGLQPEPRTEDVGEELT
UniProt Q9QR71: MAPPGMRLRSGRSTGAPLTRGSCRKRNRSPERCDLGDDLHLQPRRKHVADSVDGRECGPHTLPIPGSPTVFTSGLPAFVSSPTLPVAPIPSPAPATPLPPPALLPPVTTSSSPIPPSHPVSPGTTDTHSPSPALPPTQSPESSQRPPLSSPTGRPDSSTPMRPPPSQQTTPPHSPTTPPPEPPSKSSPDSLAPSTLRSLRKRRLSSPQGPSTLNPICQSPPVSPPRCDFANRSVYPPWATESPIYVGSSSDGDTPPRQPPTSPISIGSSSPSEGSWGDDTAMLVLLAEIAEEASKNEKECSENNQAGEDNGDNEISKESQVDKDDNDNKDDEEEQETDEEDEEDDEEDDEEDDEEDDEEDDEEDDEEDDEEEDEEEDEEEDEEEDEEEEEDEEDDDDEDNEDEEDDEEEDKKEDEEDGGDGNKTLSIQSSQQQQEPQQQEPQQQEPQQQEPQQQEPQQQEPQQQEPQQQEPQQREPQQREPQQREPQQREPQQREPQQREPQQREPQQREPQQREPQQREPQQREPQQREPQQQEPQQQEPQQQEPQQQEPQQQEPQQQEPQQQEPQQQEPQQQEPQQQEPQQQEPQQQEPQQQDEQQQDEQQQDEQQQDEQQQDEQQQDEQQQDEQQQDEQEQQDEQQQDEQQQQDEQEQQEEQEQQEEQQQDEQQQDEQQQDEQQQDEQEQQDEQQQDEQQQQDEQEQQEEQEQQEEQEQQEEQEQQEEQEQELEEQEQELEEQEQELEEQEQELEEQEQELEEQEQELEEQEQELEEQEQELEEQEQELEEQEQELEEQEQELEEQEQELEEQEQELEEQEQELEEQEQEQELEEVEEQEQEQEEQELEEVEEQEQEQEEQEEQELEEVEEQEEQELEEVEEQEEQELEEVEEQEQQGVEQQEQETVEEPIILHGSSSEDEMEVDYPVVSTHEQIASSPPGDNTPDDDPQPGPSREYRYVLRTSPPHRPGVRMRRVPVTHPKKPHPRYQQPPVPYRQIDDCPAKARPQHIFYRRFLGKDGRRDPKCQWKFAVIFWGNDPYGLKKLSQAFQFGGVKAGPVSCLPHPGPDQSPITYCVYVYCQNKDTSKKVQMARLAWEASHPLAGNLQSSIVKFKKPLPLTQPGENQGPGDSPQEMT

What was measured:
Assay in all cases: pull-down
[1] = biological target: GST IE62 (1–200) (varicella-zoster virus (VZV)) (UniProt P09310)
[2] = biological target: GST IE62 (1–86) (varicella-zoster virus (VZV)) (UniProt P09310)
[3] = biological target: GST Lana-1 (280–297) (Kaposi's sarcoma-associated herpesvirus (KSHV)) (UniProt Q9QR71)

Measured: binding

B1: human MED25 ACID domain (391–548)-6xHis (domain or fragment, UniProt Q71SY5 391-548)
chain: GQQSVSNKLLAWSGVLEWQEKPKPASVDANTKLTRSLPCQVYVNHGENLKTEQWPQKLIMQLIPQQLLTTLGPLFRNSRMVQFHFTNKDLESLKGLYRIMGNGFAGCVHFPHTAPCEVRVLMLLYSSKKKIFMGLIPYDQSGFVNGIRQVITNHKQVQ
binds: all assays above
